# PubChem BioAssay AID1259424, University of Nebraska Medical Center, 2018
# Assay: 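Seek colon cancer survival genes behaving like KSR1, using a six-gene signature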 (primary screen)
# Cell system: human HCT116 colon cancer cells
# Reagent: siRNA pool against human genes, 50 nM
# Detection: 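Six signature mRNAs by branched-DNA multiplex assay, scaled to two housekeeping genes and non-targeting median, log2; matched to mean KSR1 knockdown profile by Pearson correlation and euclidean distance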
# Reading the numbers: mean correlation with KSR1 profile and KSR1 correlation: higher = expression change more like KSR1 knockdown; mean distance from KSR1 profile: higher = expression change less like KSR1 knockdown
# Shown is an unselected part of about 14,000 reagents tested. 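Higher correlation or smaller distance means closer resemblance to KSR1 loss; control wells, including KSR1 knockdowns, recur on many plates.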 Not stated in the record: the time to read-out.
gene knocked down,mean correlation with KSR1 profile,mean distance from KSR1 profile,"KSR1 correlation, replicate 1","KSR1 correlation, replicate 2","KSR1 correlation, replicate 3"
GFM2,0.768,1.17,0.568,0.645,0.861
ALX4,-0.503,3.92,0.0694,-0.205,-0.607
SYT5,-0.0442,2.01,0.103,-0.277,0.0891
POLR2A,-0.0384,4.34,0.569,-0.179,-0.832
NR4A1,-0.244,3.41,-0.211,-0.0829,-0.556
FGL1,-0.604,1.32,-0.895,-0.41,-0.33
AAK1,0.572,2.92,0.535,0.424,0.569
DENND2A,-0.464,1.32,-0.765,-0.595,-0.493
PPP2R5E,-0.471,3.16,-0.44,-0.587,-0.45
PIF1,0.732,1.15,0.686,0.721,0.347
KIF16B,0.175,1.63,0.187,0.0441,0.225
FBLN1,0.0894,1.15,0.446,-0.146,-0.12
TSSK3,-0.192,2.31,0.0393,-0.375,-0.567
ZNF410,-0.141,1.69,-0.31,0.0718,-0.155
RHCE,0.481,2.1,0.223,0.647,0.472
HERC6,-0.465,2.45,-0.223,-0.508,-0.734
FRK,-0.25,3.88,-0.328,-0.409,-0.465
TKT,-0.726,2.72,-0.702,-0.614,-0.816
DRAM1,-0.317,1.39,-0.571,-0.268,-0.388
GNG5,0.297,1.72,0.208,0.484,0.0777
NOL3,0.101,1.75,0.0341,0.0115,-0.0595
CCL24,-0.307,1.74,0.0219,-0.633,-0.301
SLX9,0.874,0.812,0.801,0.794,0.571
NUCB1,0.175,2.52,0.0956,0.101,0.046
RPS6KA4,0.502,1.63,0.437,0.679,-0.124
CXCL5,-0.231,2.27,-0.325,-0.327,-0.296
ADGRG3,0.551,2.15,0.464,0.625,0.46
TLR10,-0.0961,2.27,-0.0623,-0.252,-0.156
OXA1L,-0.0497,2.1,0.0996,0.0532,-0.152
KCNJ13,-0.132,2.31,-0.088,-0.217,-0.26
POLR3G,-0.348,2.93,-0.234,-0.399,-0.395
NPVF,0.895,2.83,0.874,0.899,0.797
CHMP1A,0.217,1.49,0.0868,0.295,0.0225
NKX3-1,-0.639,2.65,-0.565,-0.603,-0.432
TAS2R10,0.628,1.69,0.612,0.673,0.702
RAG1,-0.079,2.25,0.0268,-0.161,-0.309
LIAS,-0.554,2.54,-0.339,-0.629,-0.535
IRS1,0.237,2.65,0.153,0.188,0.205
PCDH15,0.51,1.95,0.595,0.36,0.322
ABCD4,0.173,0.847,0.146,0.847,-0.187
SEC22C,0.0133,1.89,0.136,-0.0211,0.11
PSG5,-0.408,1.82,-0.171,-0.365,-0.511
ESF1,0.358,2.34,0.41,0.197,0.471
HMHB1,-0.539,4.35,-0.45,-0.286,-0.517
LGALS8,0.321,1.7,0.425,0.359,0.292
M6PR,0.416,1.03,0.148,0.465,0.324
UBR4,0.615,0.71,0.701,0.584,0.0477
INVS,-0.0116,2.1,-0.374,-0.285,-0.077
P4HA1,0.601,1.12,0.609,0.494,0.597
OCLN,-0.317,5.36,-0.237,-0.188,-0.371

2 entries from above in another layout:
{"gene knocked down": "FRK", "mean correlation with KSR1 profile": -0.25, "mean distance from KSR1 profile": 3.88, "KSR1 correlation, replicate 1": -0.328, "KSR1 correlation, replicate 2": -0.409, "KSR1 correlation, replicate 3": -0.465}
{"gene knocked down": "TKT", "mean correlation with KSR1 profile": -0.726, "mean distance from KSR1 profile": 2.72, "KSR1 correlation, replicate 1": -0.702, "KSR1 correlation, replicate 2": -0.614, "KSR1 correlation, replicate 3": -0.816}
